The subject of this data set is cancer tissues compared to normal tissues. In words: Identification and relative quantitation of tumor associated peptides presented on the cell surface (HLA ligand isolation, label-free LC-MS presentation profiles). Further details: species or system human. Conditions: FIG. 1E-1J; only samples where the peptide was found presented.
As for “SEQ ID NO.: 243 (GLAEFQENV; listed as Homo sapiens)”, the “number of cell lines on which the peptide was found to be presented” value (from here on “number of cell lines”) is listed as 3.
On to “SEQ ID NO.: 84 (FLLEREQLL; listed as Homo sapiens)”, for which the “number of cell lines” value is reported as 3.
Consider “SEQ ID NO.: 2 (SVLEKEIYSI; listed as Homo sapiens)”, for which the “number of cell lines” value is 4.
The result for “SEQ ID NO.: 235: peptide found in CLSPN (gene looked up) (SLLNQPKAV; listed as Homo sapiens)” reads 13.

The record behind these values is patent US11440947B2, “Peptides and combination of peptides for use in immunotherapy against various tumors” (Immatics Biotechnologies GmbH, priority 2015, dated 2022).
